This is one part of the list.
The targets below were run with CC1Cc2ccccc2N1C(=O)C1CCCN(C1)C(=O)CCl (mixture of isomers) [TRIM25 ligand 11 (diastereomer mixture)] (assay: probe-labelled cysteine peptide fold change vs DMSO (competition) (log2 fold change); higher = less target engagement (more negative = stronger competition)). Settings: 10 µM; THP-1; incubation time: 4 h.
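Also: competitive chemoproteomic profiling in live THP-1 cells with an iodoacetamide desthiobiotin (IA-DTB) probe, comparing probe-labelled peptide intensities in compound-treated cells against DMSO-treated controls.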

| Target | probe-labelled cysteine peptide fold change |
| --- | --- |
| GOLGA4_Q13439_309_EQCTLLTSEK (UniProt Q13439) | 0.00819 |
| GLYR1_Q49A26_303_CDLFIQEGAR (UniProt Q49A26) | -0.0208 |
| GPATCH11_Q8N954_195_ACQQLDVQK (UniProt Q8N954) | -0.107 |
| GMFB_P60983_8_SESLVVCDVAEDLVEK (UniProt P60983) | -0.123 |
| GLG1_Q92896_269_DAHSQGEVVSCLEK (UniProt Q92896) | -0.0665 |
| GMPS_P49915_137_EDGVFNISVDNTCSLFR (UniProt P49915) | -0.0439 |
| GNB4_Q9HAV0_25_ACNDATLVQITSNMDSVGR (UniProt Q9HAV0) | -0.197 |
| GNPTG_Q9UJJ9_142_VELACGK (UniProt Q9UJJ9) | -0.0795 |
| GLUL_P15104_99_LVLCEVFK (UniProt P15104) | -0.0968 |
| GNAI1_P63096_66_IIHEAGYSEEECK (UniProt P63096) | 0.219 |
| GLG1_Q92896_984_LSSDCEDQIR (UniProt Q92896) | 0.0171 |
| GMPS_P49915_523_TVGVQGDCR (UniProt P49915) | -0.0156 |
| GOLGA4_Q13439_1253_ISHCQHR (UniProt Q13439) | 0.0124 |
| GLS_O94925_518+525_GIHFCHDLVSLCNFHNYDNLR (UniProt O94925) | 0.00954 |
| GOT2_P00505_106_EYLPIGGLAEFCK (UniProt P00505) | -0.064 |
| GLRX2_Q9NS18_153_LLPLVHQCYLK (UniProt Q9NS18) | -0.00243 |
| GM2A_P17900_138_TYGLPCHCPFK (UniProt P17900) | 0.00974 |

An excerpt of these results, bar-delimited.
Target | probe-labelled cysteine peptide fold change
GLUL_P15104_99_LVLCEVFK (UniProt P15104) | -0.0968
GNAI1_P63096_66_IIHEAGYSEEECK (UniProt P63096) | 0.219

From the supplement of paper PMC12067093, “Discovery and optimisation of a covalent ligand for TRIM25 and its application to targeted protein ubiquitination” (Chemical Science, 2025)
